Measured values from publication PMC9617928.
Where two headings read alike, the source gives them in different places. These are yes or no findings as the source states them, for the method shown. Binding seen in cells or lysates may run through a third protein. A yes stands for co-enrichment or nearness to the bait. Other partners may have been found. Blank lines part the entries; values can stand above or below the molecule they belong to.

By UniProt entry, the sequences of proteins in these tests, tags left out.
UniProt P07814: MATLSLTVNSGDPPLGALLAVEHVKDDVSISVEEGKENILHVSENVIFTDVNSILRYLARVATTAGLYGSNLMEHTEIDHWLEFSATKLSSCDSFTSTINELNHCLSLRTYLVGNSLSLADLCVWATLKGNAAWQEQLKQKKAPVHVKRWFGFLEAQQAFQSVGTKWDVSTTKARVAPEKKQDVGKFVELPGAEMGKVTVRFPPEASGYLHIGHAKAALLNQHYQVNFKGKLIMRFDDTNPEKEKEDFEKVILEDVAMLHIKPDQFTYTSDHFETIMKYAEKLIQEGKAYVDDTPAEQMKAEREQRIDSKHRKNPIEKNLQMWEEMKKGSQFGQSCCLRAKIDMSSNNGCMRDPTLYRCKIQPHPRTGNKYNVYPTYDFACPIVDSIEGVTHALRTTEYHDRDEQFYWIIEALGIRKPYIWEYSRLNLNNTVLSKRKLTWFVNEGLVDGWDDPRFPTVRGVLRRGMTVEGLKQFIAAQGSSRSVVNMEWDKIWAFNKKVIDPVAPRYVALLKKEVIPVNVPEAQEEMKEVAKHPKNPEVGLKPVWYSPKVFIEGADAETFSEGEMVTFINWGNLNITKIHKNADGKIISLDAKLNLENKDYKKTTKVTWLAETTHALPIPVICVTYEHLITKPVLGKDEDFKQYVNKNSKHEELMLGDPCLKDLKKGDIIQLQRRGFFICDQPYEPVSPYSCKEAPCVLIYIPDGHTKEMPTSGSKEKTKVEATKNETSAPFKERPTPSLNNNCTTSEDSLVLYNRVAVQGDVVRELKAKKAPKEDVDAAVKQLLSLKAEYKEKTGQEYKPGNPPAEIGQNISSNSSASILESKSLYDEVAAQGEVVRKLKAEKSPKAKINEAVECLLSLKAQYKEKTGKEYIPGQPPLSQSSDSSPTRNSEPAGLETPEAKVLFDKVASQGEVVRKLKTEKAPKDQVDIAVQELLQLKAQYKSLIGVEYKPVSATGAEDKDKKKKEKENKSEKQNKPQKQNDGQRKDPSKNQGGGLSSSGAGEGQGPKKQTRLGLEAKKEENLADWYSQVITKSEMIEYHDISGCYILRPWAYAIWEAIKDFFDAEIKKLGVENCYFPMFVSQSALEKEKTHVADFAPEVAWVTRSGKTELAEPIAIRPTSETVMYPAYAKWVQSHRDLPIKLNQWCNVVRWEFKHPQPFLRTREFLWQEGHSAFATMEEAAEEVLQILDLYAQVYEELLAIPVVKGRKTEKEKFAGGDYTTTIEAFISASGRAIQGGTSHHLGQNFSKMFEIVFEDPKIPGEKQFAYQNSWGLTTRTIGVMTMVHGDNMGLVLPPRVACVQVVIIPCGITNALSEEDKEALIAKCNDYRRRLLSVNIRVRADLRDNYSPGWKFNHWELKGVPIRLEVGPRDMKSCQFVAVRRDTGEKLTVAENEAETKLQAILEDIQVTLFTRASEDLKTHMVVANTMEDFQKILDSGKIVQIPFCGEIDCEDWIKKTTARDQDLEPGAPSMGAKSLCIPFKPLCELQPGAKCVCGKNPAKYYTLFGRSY
UniProt P31749: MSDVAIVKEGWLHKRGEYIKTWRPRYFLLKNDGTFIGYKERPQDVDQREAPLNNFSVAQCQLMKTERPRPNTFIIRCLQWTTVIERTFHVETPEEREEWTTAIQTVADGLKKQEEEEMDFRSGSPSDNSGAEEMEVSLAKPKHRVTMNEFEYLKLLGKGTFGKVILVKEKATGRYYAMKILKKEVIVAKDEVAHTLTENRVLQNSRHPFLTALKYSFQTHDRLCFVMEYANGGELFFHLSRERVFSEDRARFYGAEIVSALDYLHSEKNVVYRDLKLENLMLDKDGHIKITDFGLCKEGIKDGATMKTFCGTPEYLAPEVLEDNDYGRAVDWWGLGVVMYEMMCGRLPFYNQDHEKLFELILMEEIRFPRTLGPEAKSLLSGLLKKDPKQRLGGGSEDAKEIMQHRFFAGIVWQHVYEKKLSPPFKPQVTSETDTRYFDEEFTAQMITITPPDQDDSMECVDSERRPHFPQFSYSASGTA
UniProt P51148: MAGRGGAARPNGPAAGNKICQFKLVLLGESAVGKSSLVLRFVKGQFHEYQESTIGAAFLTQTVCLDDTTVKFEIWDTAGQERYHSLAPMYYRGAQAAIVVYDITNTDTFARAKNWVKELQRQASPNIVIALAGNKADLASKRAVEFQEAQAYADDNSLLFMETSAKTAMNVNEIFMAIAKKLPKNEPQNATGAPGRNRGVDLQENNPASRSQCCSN

Legend:
[1] = target: Strep-EPRS1 (glutamyl-prolyl-tRNA synthetase 1, Strep-tagged) (human) (UniProt P07814); test: affinity purification with mass spectrometry; Strep-EPRS1 in transfected 293T cells, unstimulated or LPS-stimulated; Strep-Tactin Superflow column, desthiobiotin elution, in-gel digestion, Orbitrap
[2] = target: Strep-EPRS1 (glutamyl-prolyl-tRNA synthetase 1, Strep-tagged) (human) (UniProt P07814); test: as above; remark: listed apart in the source

binding [1]: binds
Molecule: AKT1, endogenous in 293T cells (from UniProt P31749 1-480) (enzyme)

binding [1]: binds
Molecule: Rab5C, endogenous in 293T cells (from UniProt P51148 1-216)

binding [2]: binds
B1: Rab5B, endogenous in 293T cells (protein, UniProt P61020 1-215)
chain: MTSRSTARPNGQPQASKICQFKLVLLGESAVGKSSLVLRFVKGQFHEYQESTIGAAFLTQSVCLDDTTVKFEIWDTAGQERYHSLAPMYYRGAQAAIVVYDITNQETFARAKTWVKELQRQASPSIVIALAGNKADLANKRMVEYEEAQAYADDNSLLFMETSAKTAMNVNDLFLAIAKKLPKSEPQNLGGAAGRSRGVDLHEQSQQNKSQCCSN
